Measured data: PubChem BioAssay AID720505 (Drosophila RNAi Screening Center, 2013)
The deposit covers about 20,000 reagents; below is a random part of those that have a named target and a result. Of all reagents, about 2,100 (10%) were called active. 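Raw plate signals without normalisation; calls rest on control-based scores that were not deposited; replicate 2 separates called from uncalled poorly.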 Names joined by + are all predicted targets of the reagent. Not stated in the record: the amount of reagent, the time to read-out.

- Purpose: 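Fly regulators or components of the CRAC channel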 (primary screen)
- System: Drosophila S2R+ cells
- Knock-down reagent: long dsRNA against Drosophila genes
- Treatment: thapsigargin (2 µM) in calcium-free buffer to empty internal stores, then 2 mM calcium added back
- Measurement: 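Stores emptied by 2 µM thapsigargin without calcium, then 2 mM calcium re-added; fluo-4 fluorescence followed by FLIPR in 384-well plates, per-well averaged endpoint, raw; two screen passes, some wells retested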
- Reading the numbers: calcium signal and retest calcium signal: higher = more calcium entry after store depletion
- Active means: 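Knock-downs counted as hits when calcium entry dropped relative to STIM1 positive and Rho1 negative controls present on each plate; roughly 1500 genes called, with reductions of differing size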
- Meaning of the calls: active = called as lowering calcium entry; inactive = not called

Spn28F (Serpin 28F) [DRSC03615]: calcium signal, replicate 1 = 158; calcium signal, replicate 2 = 147; call = inactive
Or45b (Odorant receptor 45b) [DRSC07488]: calcium signal, replicate 1 = 153; calcium signal, replicate 2 = 184; call = inactive
CG17196 [DRSC15189]: calcium signal, replicate 1 = 222; calcium signal, replicate 2 = 180; call = inactive
GstO2 (Glutathione S transferase O2) [DRSC10691]: calcium signal, replicate 1 = 84.3; calcium signal, replicate 2 = 109; call = inactive
CG6567 [DRSC16066]: calcium signal, replicate 1 = 148; calcium signal, replicate 2 = 83.8; call = inactive
CG12539 [DRSC19470]: calcium signal, replicate 1 = 125; calcium signal, replicate 2 = 147; call = inactive
CG9386 [DRSC16485]: calcium signal, replicate 1 = 109; calcium signal, replicate 2 = 165; call = inactive
CG13361 [DRSC17896]: calcium signal, replicate 1 = 123; calcium signal, replicate 2 = 140; call = inactive
BHD (Birt-Hogg-Dube) [DRSC11017]: calcium signal, replicate 1 = 119; calcium signal, replicate 2 = 131; call = inactive
BHD (Birt-Hogg-Dube) [DRSC22833]: calcium signal, replicate 1 = 91.7; calcium signal, replicate 2 = 96.2; call = inactive
CG5569 [DRSC04514]: calcium signal, replicate 1 = 104; calcium signal, replicate 2 = 180; call = inactive
Oct-TyrR (Octopamine-Tyramine receptor) [DRSC11883]: calcium signal, replicate 1 = 103; calcium signal, replicate 2 = 124; call = inactive
SdhCL (Succinate dehydrogenase, subunit C-like) [DRSC16078]: calcium signal, replicate 1 = 71.4; calcium signal, replicate 2 = 205; call = active
CG31404 [DRSC15497]: calcium signal, replicate 1 = 169; calcium signal, replicate 2 = 188; call = inactive
CG13367 [DRSC18485]: calcium signal, replicate 1 = 105; calcium signal, replicate 2 = 115; call = inactive
CG13367 [DRSC18486]: calcium signal, replicate 1 = 65.8; calcium signal, replicate 2 = 95.4; call = active
CG9304 [DRSC04538]: calcium signal, replicate 1 = 159; calcium signal, replicate 2 = 82.3; call = inactive
Vtld + CG42529 [DRSC10102]: calcium signal, replicate 1 = 86.6; calcium signal, replicate 2 = 128; call = inactive
CR15821 (pseudo) [DRSC08481]: calcium signal, replicate 1 = 68; calcium signal, replicate 2 = 127; call = inactive
Shark (SH2 ankyrin repeat kinase) [DRSC07680]: calcium signal, replicate 1 = 153; calcium signal, replicate 2 = 77.9; call = inactive
Ance (Angiotensin converting enzyme) [DRSC01865]: calcium signal, replicate 1 = 115; calcium signal, replicate 2 = 131; call = inactive
CG7841 [DRSC10922]: calcium signal, replicate 1 = 105; calcium signal, replicate 2 = 135; call = inactive
Nplp1 (Neuropeptide-like precursor 1) [DRSC04370]: calcium signal, replicate 1 = 99.9; calcium signal, replicate 2 = 90.2; call = inactive
CG6479 [DRSC10647]: calcium signal, replicate 1 = 99.1; calcium signal, replicate 2 = 111; call = inactive
MCU (Mitochondrial calcium uniporter) [DRSC10339]: calcium signal, replicate 1 = 101; calcium signal, replicate 2 = 69.3; call = inactive
Crag [DRSC18454]: calcium signal, replicate 1 = 88.6; calcium signal, replicate 2 = 56.5; call = active
Ilp6 (Insulin-like peptide 6) [DRSC17906]: calcium signal, replicate 1 = 59.7; calcium signal, replicate 2 = 98; call = active
CG18367 [DRSC06545]: calcium signal, replicate 1 = 57; calcium signal, replicate 2 = 63.4; retest calcium signal, replicate 1 = 176; retest calcium signal, replicate 2 = 183; call = active
CG13460 [DRSC10007]: calcium signal, replicate 1 = 104; calcium signal, replicate 2 = 206; call = inactive
flw (flapwing) [DRSC17992]: calcium signal, replicate 1 = 71.4; calcium signal, replicate 2 = 104; call = inactive
flw (flapwing) [DRSC18774]: calcium signal, replicate 1 = 64.7; calcium signal, replicate 2 = 112; call = inactive
Gr93a (Gustatory receptor 93a) [DRSC14593]: calcium signal, replicate 1 = 260; calcium signal, replicate 2 = 187; call = inactive
muskelin [DRSC07273]: calcium signal, replicate 1 = 67.4; calcium signal, replicate 2 = 193; call = inactive
mRpL10 (mitochondrial ribosomal protein L10) [DRSC00312]: calcium signal, replicate 1 = 111; calcium signal, replicate 2 = 110; call = inactive
CG4452 [DRSC10422]: calcium signal, replicate 1 = 83.9; calcium signal, replicate 2 = 123; call = inactive
